In PMC12352791:
No constants are given. Whether binding was seen depends on the method and setting. Binding seen in cells or lysates may run through a third protein. Binding can be weak; no strength is given. For part of these data: Sequences can lack the tags named with a protein. Blank lines part the entries; values can stand above or below the molecule they belong to.

Experiments:
Flag-USP53 = target: T1, Flag-USP53 (UniProt Q70EK8); test: co-IP; HEK-293T cells cotransfected with Flag-USP53 and HA-RIPK1 or its truncation mutants; anti-Flag IP, Western blotting
T1 sequence: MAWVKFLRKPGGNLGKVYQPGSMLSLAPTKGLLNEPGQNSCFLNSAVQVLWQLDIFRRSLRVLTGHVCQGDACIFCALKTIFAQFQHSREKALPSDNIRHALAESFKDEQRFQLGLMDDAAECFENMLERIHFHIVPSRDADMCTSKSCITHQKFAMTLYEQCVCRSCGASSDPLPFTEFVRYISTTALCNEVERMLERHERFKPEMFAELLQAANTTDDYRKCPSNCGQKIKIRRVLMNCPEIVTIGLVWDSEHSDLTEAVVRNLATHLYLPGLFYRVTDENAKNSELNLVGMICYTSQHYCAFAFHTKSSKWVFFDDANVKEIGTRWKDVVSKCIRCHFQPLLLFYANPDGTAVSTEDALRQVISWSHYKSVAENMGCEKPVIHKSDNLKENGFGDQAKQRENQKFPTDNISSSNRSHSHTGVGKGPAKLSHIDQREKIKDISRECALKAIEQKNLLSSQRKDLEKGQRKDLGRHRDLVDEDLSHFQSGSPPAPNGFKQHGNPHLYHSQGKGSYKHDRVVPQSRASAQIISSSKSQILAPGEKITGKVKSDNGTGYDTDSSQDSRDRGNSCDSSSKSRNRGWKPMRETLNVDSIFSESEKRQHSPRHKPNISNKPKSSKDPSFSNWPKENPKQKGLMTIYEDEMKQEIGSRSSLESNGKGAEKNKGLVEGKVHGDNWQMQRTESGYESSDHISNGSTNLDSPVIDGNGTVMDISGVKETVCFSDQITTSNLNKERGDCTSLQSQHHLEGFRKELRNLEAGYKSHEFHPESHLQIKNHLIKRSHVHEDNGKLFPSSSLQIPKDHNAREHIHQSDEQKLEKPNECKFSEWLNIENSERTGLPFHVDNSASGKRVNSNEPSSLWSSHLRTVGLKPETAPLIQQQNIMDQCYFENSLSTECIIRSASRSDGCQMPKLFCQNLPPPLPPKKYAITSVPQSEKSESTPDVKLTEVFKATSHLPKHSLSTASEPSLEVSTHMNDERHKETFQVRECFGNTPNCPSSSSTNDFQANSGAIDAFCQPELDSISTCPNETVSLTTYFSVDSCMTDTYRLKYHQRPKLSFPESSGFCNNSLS

[1] = target: RIPK1, endogenous in primary rat cardiomyocytes (rat (endogenous in primary cardiomyocytes)); test: co-IP; endogenous proteins in primary rat cardiomyocytes with or without EtOH; NP-40 lysis buffer, Protein A/G magnetic beads, overnight at 4 °C

binding (Flag-USP53): binds
Molecule: HA-RIPK1-ID (intermediate domain) (human) (domain or fragment)

binding (Flag-USP53): no binding
Molecule: HA-RIPK1-ΔID (intermediate domain-depleted RIPK1) (human) (domain or fragment)

binding [1]: binds
B1: USP53, endogenous in primary rat cardiomyocytes (protein, UniProt D3ZYY9 1-1082)
chain: MAWVKFLRKPSGNLGKAYPAGSLLSLAPTVGLLNEPGQNSCFLNSAVQVLWQLDIFRRSLRVLTGHICQGDACIFCALKTIFAQFQHSREKALPSDNIRHALAESFKDEQRFQLGLMDDAAECFENILARIHFHLAPNRDADMCTSKSCVTHQKFAMTLYEQCVCRSCGASSDPLPFTEFVRYISTTALCNEVERMMERHERFKPEMFADLLQAANTADDYRKCPSNCGQKIKIRRVLMNCPEIVTIGLVWDSEHSDLTEDVVRSLATHLYLPGLFYRVTDENAVDSELHLVGMICYTSRHYCAFAFHTKSSKWVFFDDALVKEIGTRWKDVVSKCIRCHLQPLLLFYANPDGTAVSTEDALKQVVHWSHYKSVEENMGCEKPIIYKPDNLKENGFGGQIKQKENHKFQGDNISSFNRSQVQTSGRRAPVKLSHDQREKIKDISRECALKAMEQKNALSSQRKELEKGQRKDTGRHRDVVDEDLSSFKSASPPASDGFRQQGNPHLYHSQGKGPCKHDRAASESSSSGKVMSSSRSQNPLVPGEKTTGKAKSDSGTGYDTDSSQDSRDKGGSYGSRTKSRHRGWKPMRETLNVDSVFSESEKRQHSPRRKSDIGNRPKCSKDQSCNNWPKANPKRKGLMTIYEDEMKQEAGSRSSHETNGKGAEKNTGAAESRGPGSSWQMQRTESGYESSDHVSNGSASLDSPGIDGSGAVMDVGGGKAFSEQIKMNSPNTDSVECVSHQSKDLPEGFRKDLQDLEADDKSYELHPESHVQIKNHLIKRSQIGETNDKLFPSASSQTPAREYVYQTNEQKGEKPDRTKCSEWRNTEISEGMGLPFHVDESSVAGKRVNSNETVSPSSLSSSVRTAGLKAETGPVIFWPQQNITEQGYSENSLSRELTRQSACNADSCQMPKLHCHRSPPPLPPKKYSTTSVPRLERAGFIPDVRLPEAFNTNFSSLPKHSLSTASGPSSEGSAYMTQEKDKETIQVKHQAANSCPSSCSTGGFQANSKALVNMFCEPDQDSRSMCPSETVSLTTYFSVDSCMTDTYRLKYHQRPKLCFPESSGHCSDKSLSQTEQVEGSIT
